## Screening data

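Luminescence from an EWS-FLI1 target-promoter (NR0B1) reporter, set against a CMV-promoter reporter, two days after silencing single genes in TC32 Ewing sarcoma cells.
Each siRNA was applied at 20 nM.
A z-score of the log NR0B1-over-CMV signal, less the median of siRNAs with the same seed; more negative means a stronger specific loss of the NR0B1 reporter.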

This is part of the screen; most of the strongest results are not listed here.
Sequences are the guide (antisense) strand, without overhang.

siRNA,target gene,seed-corrected z-score
AAAUGCUUAGCUGAUCUCC,TEX19,0.03216
UAAUUGUAGUGUUCAAGGA,TMEM179B,0.0847
UGGUUUUUCAUGUGAAUCU,GPATCH11,1.344
UUUUUCCAAAGACCUACUG,EMP1,0.3726
AAAAAUGAUAUCACCUUCC,ERP27,-0.05561
UUGAGGUCCAGGUAGUACU,PURB,-1.029
UUAUAGCAUGGAUAUCUCC,CDH8,-0.8627
ACAUCGUUCGUUAAAAUUC,SLC47A1,-0.1965
ACUUUUUCAAAGGUCAUUA,MBL2,-1.043
UCAGCAAUCUGAUCCCACC,KLHL3,0.1931
UCAGAACGAAGUAUAUUCC,C9orf64,0.3498
UUGCUGGUCUCGUUCCUGC,HRH2,0.09193
UACCGAAGCAGGUUUUAGG,LOC645645,0.2409
UUCGUAUCAAGUCUACUUC,AQR,-1.076
AUAAUGGUAACAACUGAUU,TMEM14B,-0.184
AAAUUUCGAAACGAGGUUC,RIOK2,-0.6086
UUGGAUCUUUCAAUGCUCG,EIF3M,0.5342
AAAGUAAGAGGCAACGAUG,N4BP2,0.3903
AUAAGGACUUGUAAGAGCC,CHRM2,1.148
UAUCCGGUAUUGCCCAUUG,C1QTNF7,-0.1362
UAGGUUAAUGGUGUAGGUC,EMC1,1.76
UUCGCUUUCUUAUCAUUCG,TIGD1,0.3645
UGUCAUUCCAAUCCUUAGC,GDF3,0.4392
UUCGCUAUUAUAUCUGAUG,HEATR5B,0.4381
UCCAUGGUAACUCAAGCUC,LOC100533706,0.5272
UGUUGAAAUUCUUGUAGUC,DEFB126,0.4671
UUGAAGAUGUUAGUAUUGG,SLC25A51,0.5247
UCCACAGCAACCAUACUCC,TXNRD3,-0.3753
UCUUUGUAUACUAACCGGC,SLC37A2,0.2819
UUUGAUGUCGUGCGAGUGC,SDF2L1,0.2637
UUCCCGAAGACAGUGUUGC,HINT1P1,-0.4168
UAUUGUAUGGAAGAGCUGG,RAB9A,-0.6759
UUCUGAACAAAGGAUGUGC,LOC646938,1.406
ACACUAUUUAUGCUAAUCC,FAM208B,1.086
UCCCUGAUACCUCAAAUGC,EI24,0.09465
UGUAGAUGGAGCAACCUUC,CD164L2,-0.2168
UUAAGAAGCACCUUGACUG,ANKRD16,0.1908
UUCUUCAAUAUAGUUCUUU,GNG11,0.5033
UUCUUAUUAUGGGAUUUUG,TRIM64,0.2823
UUGCGGAUGACCAAGGAGG,CCDC116,-0.08418
UUCCGGAAAAACACGCUGC,RP2,-0.3703
UUUCGUGCAACCAGAGUUA,KDSR,1.325
UUAAGUCUAAAUAGGACUC,HAUS1,1.044
UCAUGUUGUCCUCUGCUUC,SNRPD3,-1.869
UCCCGUUCCAGCUUUCUCA,PEX11G,-0.1808
UAGUCGAUCUGGGUGGUGU,OLFML2A,0.128
UCUGGUUGCAGUUACACUC,NTNG2,-0.01696

The first 5 entries again:

- AAAUGCUUAGCUGAUCUCC against TEX19 : seed-corrected z-score 0.03216
- UAAUUGUAGUGUUCAAGGA against TMEM179B : seed-corrected z-score 0.0847
- UGGUUUUUCAUGUGAAUCU against GPATCH11 : seed-corrected z-score 1.344
- UUUUUCCAAAGACCUACUG against EMP1 : seed-corrected z-score 0.3726
- AAAAAUGAUAUCACCUUCC against ERP27 : seed-corrected z-score -0.05561

Data taken from PubChem BioAssay AID1159506, deposited by NCATS (2015).